The other results are listed elsewhere or left out. Further columns of the screen follow, without active or inactive calls. Most of these compounds were active or inconclusive in the main read-out, so they are no random draw. The note in brackets gives the kind of curve behind each potency; many fits are weak.
Test: qHTS Assay for Lipid Storage Modulators in Drosophila S3 Cells;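 for cell number change: cells counted by Cell Tracker Red CMTPX staining in the red channel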
Settings: BODIPY lipid droplet fluorescence, 18-24 h; for cell number change: measured here: cell count max response, cells fed with added oleic acid
Method in brief: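 Drosophila S3 cells got compounds at several concentrations plus oleic acid (400 uM solution). Laser-scanning cytometry with 488 nm excitation read lipid droplets at 500-530 nm and cells at 575-640 nm. Percent activity was relative to 20 uM Triacsin C.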

[1] = measured here: cell number channel AC50, cells fed with added oleic acid
[2] = measured here: lipid fluorescence (Fed channel) AC50, cells fed with added oleic acid

Row | Compound | cell number change [%] | AC50 [1] | AC50 [2]
1 | CCOc1ccc2nc(N3CCCC(C(=O)N4CCN(CC)CC4)C3)sc2c1 (stereo unspecified) | -56.8 | 4.11 µM [falling, single point] | 
2 | COc1ccc(NC(=S)NCCc2ccc(F)cc2)c(OC)c1 | -6.79 | 6.51 µM [rising, partial curve, poor fit] | 7.31 µM [rising, partial curve, poor fit]
3 | COC(=O)Cc1c(C)c2ccc(O)c(CNCc3ccc(OC)c(OC)c3)c2oc1=O | 21.5 |  | 
4 | COC(=O)C1=C(C)N=C2SC(C#N)=C(N)N2C1c1ccc(OC)cc1 (stereo unspecified) |  |  | 7.31 µM [falling, partial curve]
5 | O=C(CSc1nnc2c(n1)[nH]c1ccccc12)Nc1nncs1 | -30.5 | 11.6 µM [falling, partial curve] | 
6 | Cn1c(=O)c2sccc2n2c(CCCC(=O)NCc3cccnc3)nnc12 | 18.7 |  | 0.58 µM [falling, single point]
7 | C/C(=N/NS(=O)(=O)c1ccc(C)cc1)[C@H]1C[C@@H]1c1ccccc1 | -20.9 | 0.366 µM [falling, full curve, poor fit] | 
8 | O=C(CSc1nccc(=O)[nH]1)Nc1ccc(N2CCOCC2)c(Cl)c1 | -0.952 |  | 29.1 µM [falling, single point]
9 | O=C(NC(=S)Nc1cc(S(=O)(=O)N2CCOCC2)ccc1N1CCOCC1)c1ccco1 |  |  | 0.00461 µM [rising, full curve, poor fit]
10 | COc1ccc(C(C)NC(=O)c2ccncc2)cc1 (stereo unspecified) | 21.8 |  | 0.058 µM [falling, full curve, poor fit]
11 | O=C(Nn1cnnc1)C1Cc2ccccc2CN1S(=O)(=O)c1ccc(F)cc1 (stereo unspecified) | -76.4 | 32.6 µM [falling, single point] | 
12 | Cc1ccc(-c2noc(CN(C(=O)CCCCCN3C(=O)c4ccccc4C3=O)C(C)C)n2)cc1 | -15.4 |  | 0.58 µM [rising, partial curve]
13 | O=C(Nc1cccc2ccccc12)c1ccc([N+](=O)[O-])s1 | -45.3 | 29.1 µM [falling, single point] | 0.13 µM [falling, full curve, poor fit]
14 | COc1ccc(/C=C/C(=O)Nc2cc(S(=O)(=O)N3CCOCC3)ccc2N2CCCC2)cc1OC |  | 0.517 µM [rising, partial curve] | 1.16 µM [rising, partial curve]
15 | CC(NS(=O)(=O)c1ccc2c(c1)C(=O)c1cc(S(=O)(=O)NC(C)C(=O)O)ccc1-2)C(=O)O (stereo unspecified) | 15.3 |  | 6.51 µM [rising, single point]
16 | O=C(O)CC(CC(=O)Nc1ccccc1C(=O)O)c1ccccc1 (stereo unspecified) | -22.3 |  | 20.6 µM [falling, single point]
17 | CCOc1ccc(NCc2nnc(SCC(=O)Nc3nc(-c4ccccc4)cs3)n2-c2ccccc2)cc1 | -15.9 |  | 29.1 µM [falling, single point]
18 | O=c1[nH]c(CN2CCN(S(=O)(=O)c3ccc4c(c3)OCCO4)CC2)nc2sc3c(c12)CCCC3 | 11 |  | 
19 | CC(C)C[C@H](NC(=O)NCc1ccccc1Cl)C(=O)O | -22 |  | 7.31 µM [falling, partial curve, poor fit]

Reformatted field by field: part of the list above
COC(=O)C1=C(C)N=C2SC(C#N)=C(N)N2C1c1ccc(OC)cc1 (stereo unspecified)
  AC50 [2]: 7.31 µM [falling, partial curve]
Cc1ccc(-c2noc(CN(C(=O)CCCCCN3C(=O)c4ccccc4C3=O)C(C)C)n2)cc1
  cell number change [%]: -15.4; AC50 [2]: 0.58 µM [rising, partial curve]
COc1ccc(/C=C/C(=O)Nc2cc(S(=O)(=O)N3CCOCC3)ccc2N2CCCC2)cc1OC
  AC50 [1]: 0.517 µM [rising, partial curve]; AC50 [2]: 1.16 µM [rising, partial curve]

The results go on.

Row | Compound | cell number change [%] | AC50 [1] | AC50 [2]
20 | CN1CCC(N(C)C(=O)c2cc(-c3ccccc3Cl)nc3ccccc23)CC1 | 1.1 |  | 0.092 µM [falling, full curve, poor fit]
21 | O=C1CC(=O)Nc2cc(S(=O)(=O)N3CCN(c4ccc([N+](=O)[O-])cc4)CC3)ccc2N1 | 21.7 |  | 
22 | COC(=O)c1ccc(NC(=O)Nc2cccc(F)c2)cc1 | -40.8 | 29.1 µM [falling, single point] | 32.6 µM [falling, single point]
23 | O=C1CC(c2ccccc2)=Nc2ccccc2N1 | 12.1 |  | 
24 | Cc1cc(N=Cc2c(O)n(-c3ccc(C)c(C)c3)c(=O)c3ccccc23)no1 | -21.5 | 0.116 µM [falling, full curve] | 
25 | Cc1ccc(CN2CCN(/N=C/c3ccc(N(C)C)cc3)CC2)cc1 | -3.64 |  | 4.11 µM [falling, full curve]
26 | CC(C)(C)n1nc2c(c1NC(=O)CCCc1ccccc1)CS(=O)C2 (stereo unspecified) | 2.11 |  | 0.92 µM [rising, full curve]
27 | COc1cc(NC(=O)CSc2nc3ccccc3c(=O)n2C)ccc1NC(=O)c1ccco1 | 6.27 |  | 0.461 µM [rising, full curve, poor fit]
28 | Cc1cc(C)c(C(=O)CSc2nnc(C)s2)c(C)c1 | -6.25 |  | 0.82 µM [falling, single point]
29 | Nc1ccc(-c2nc3c(Cl)cc(N)cc3[nH]2)cc1 | 25.5 |  | 
30 | COCCNC(=O)C(c1cccc(OC)c1)N(C(=O)Cn1nnc2ccccc21)c1cccnc1 (stereo unspecified) | 11.2 |  | 
31 | CC(C)Cc1ccc(/C=C/C(=O)N2CCCCC2)cc1 | -8.06 |  | 2.59 µM [rising, single point]
32 | Cc1cc(OCC(=O)NCCc2c[nH]c3ccccc23)c2c(C)cc(=O)oc2c1 |  |  | 29.1 µM [falling, single point]
33 | C/C(=N\Nc1ccc(C(=O)c2c(C)cc3ccccn23)cc1[N+](=O)[O-])c1ccc(O)cc1 | 5.92 |  | 6.51 µM [falling, single point]
34 | O=C(O)C1CCN(C(=O)COc2ccc3c4c(c(=O)oc3c2)CCCC4)CC1 | 17.8 |  | 0.651 µM [rising, single point]
35 | O=C(CNC(=O)C12CC3CC(CC(C3)C1)C2)NC1=NCCS1 | -24.6 | 0.103 µM [falling, full curve, poor fit] | 0.0651 µM [falling, full curve]
36 | CCOC(=O)c1c(CN2CCN(c3ccccc3)CC2)oc2cc(Br)c(O)cc12 | -14.6 |  | 20.6 µM [falling, single point]
37 | COc1ccccc1NS(=O)(=O)c1cc(NC(=O)Cn2cnc3c2c(=O)n(C)c(=O)n3C)ccc1C | -13.4 |  | 0.58 µM [rising, single point]
38 | COCCN=c1scc(-c2cc(OC)c(OC)c(OC)c2)n1/N=C/c1c(C)[nH]c2ccccc12 | 11.6 |  | 18.4 µM [falling, single point]
